The values below come from PubChem BioAssay AID248 (DTP/NCI, 2004).

The test system of this test is L1210 leukemia ip in BDF1 mice, survival T/C. In words: NCI In Vivo Anticancer Drug Screen. Data for tumor model L1210 Leukemia (intraperitoneal) in B6D2F1 (BDF1) mice. The following applies: higher T/C = longer survival.
Setting [1] is: T/C endpoint: mean survival time, dose: 100.0 mg/kg/injection, schedule: Q04DX003 (ip), vehicle: saline with Tween-80.
The mark [2] stands for this setting: T/C endpoint: mean survival time, dose: 200.0 mg/kg/injection, schedule: Q04DX003 (ip), vehicle: saline with Tween-80.
The mark [3] stands for this setting: T/C endpoint: mean survival time, dose: 400.0 mg/kg/injection, schedule: Q04DX003 (ip), vehicle: saline with Tween-80.
Setting [4] is: T/C endpoint: mean survival time, dose: 400.0 mg/kg/injection, schedule: Q01DX009 (ip), vehicle: Klucel (hydroxypropylcellulose) (HPC).
Where [5] appears, read: T/C endpoint: mean survival time, dose: 2.0 mg/kg/injection, schedule: Q01DX009 (ip), vehicle: water.
[6] abbreviates: T/C endpoint: mean survival time, dose: 4.0 mg/kg/injection, schedule: Q01DX009 (ip), vehicle: water.
The mark [7] stands for this setting: T/C endpoint: mean survival time, dose: 300.0 mg/kg/injection, schedule: Q01DX001 (ip), vehicle: saline.
Setting [8] is: T/C endpoint: mean survival time, dose: 200.0 mg/kg/injection, schedule: Q01DX001 (ip), vehicle: carboxymethylcellulose (CMC).

The list shows only some results of the screen, not a fair sample: it is rich in T/C values a quarter to a half above the control, in often repeated tests (any T/C) and in doses without a T/C. Further doses and runs are listed elsewhere. T/C is the treated group as % of the vehicle group. Some doses have a count of surviving animals in place of a T/C: the source files T/C as zero there, which appears to mark a toxic dose or a test without result, not a measured value. Some doses without a T/C left all or most animals alive at the check, yet need not have been tolerated: the source hardly ever lists a survival T/C far under the control, and the zero likely stands for such cases as well. Survivors were counted at the toxicity check, usually on the fifth day, unless a day is given; later deaths do not show. Schedules are NCI's codes, read here as Q, the interval in days (D) or hours (H), X, the number of doses. Marks such as (2×) say how often a value occurs here. Some entries were tested several times; the results are listed from low to high. For survival time, the PubChem record calls one and a half times the control and up active, and a quarter to a half above the control has no call in these data; cut-offs in other NCI protocols can differ. Some schedule codes hold Z or #, which are not explained here. Some T/C values carry the count of animals alive at the toxicity check (mostly the fifth day); where none is given, no animal had died by that day.

On to `Cc1ccccc1Nc1c2ccccc2nc2ccccc12`, for which the survivor count under setting [1] is 5 of 6, the survivor count under setting [2] was 1 of 6 and the survivor count under setting [3] is given as 0 of 6.

In the case of `CCN(Cc1ccccc1)C(=O)NC(C)(C)C`, the survivor count under setting [4] was 3 of 6.

As to `O=C(O)c1ccccc1/C=C/c1ccc([N+](=O)[O-])cc1`, the survivor count (T/C endpoint: mean survival time, dose: 200.0 mg/kg/injection, schedule: Q01DX001 (ip), vehicle: saline with Tween-80) is given as 3 of 6 and the survivor count (T/C endpoint: mean survival time, dose: 400.0 mg/kg/injection, schedule: Q01DX001 (ip), vehicle: saline with Tween-80) was 0 of 6.

Turning to `O=CNC(CSC(=O)c1ccccc1)C(=O)O` (centres undefined), the survivor count under setting [4] is listed as 3 of 6.

`COC(=O)C[C@](O)(CCC(C)(C)O)C(=O)O[C@@H]1C(OC)=C[C@]23CCCN2CCc2cc4c(cc2[C@H]13)OCO4`: the T/C was 125 % of control (T/C endpoint: mean survival time, dose: 0.2 mg/kg/injection, schedule: Q01DX009 (ip), vehicle: saline); 116 and 121 % of control (T/C endpoint: mean survival time, dose: 0.5 mg/kg/injection, schedule: Q01DX009 (ip), vehicle: saline, evaluated on day 30); 117 % of control (T/C endpoint: mean survival time, dose: 0.5 mg/kg/injection, schedule: Q01DX009 (ip), vehicle: saline, evaluated on day 60); 123 % of control (T/C endpoint: mean survival time, dose: 0.5 mg/kg/injection, schedule: Q01DX009 (ip), vehicle: saline, run until all animals had died); 119, 124, 125, 131 % of control (T/C endpoint: mean survival time, dose: 0.5 mg/kg/injection, schedule: Q01DX009 (ip), vehicle: water); 120 and 124 % of control (T/C endpoint: mean survival time, dose: 1.0 mg/kg/injection, schedule: Q01DX009 (ip), vehicle: saline, evaluated on day 30). Also, the T/C was 186 % of control (T/C endpoint: mean survival time, dose: 1.0 mg/kg/injection, schedule: Q01DX009 (ip), vehicle: saline, evaluated on day 60); 132 % of control (T/C endpoint: mean survival time, dose: 1.0 mg/kg/injection, schedule: Q01DX009 (ip), vehicle: saline, run until all animals had died); 117, 134, 135, 140 % of control (T/C endpoint: mean survival time, dose: 1.0 mg/kg/injection, schedule: Q01DX009 (ip), vehicle: water); 130 % of control [8 of 10 alive] (T/C endpoint: mean survival time, dose: 1.0 mg/kg/injection, schedule: Q03HX024 (ip), vehicle: saline); 142 % of control (T/C endpoint: mean survival time, dose: 1.0 mg/kg/injection, schedule: Q#A X018 (ip), vehicle: saline); 130 and 138 % of control (T/C endpoint: mean survival time, dose: 2.0 mg/kg/injection, schedule: Q01DX009 (ip), vehicle: saline, evaluated on day 30). Besides, the T/C (T/C endpoint: mean survival time, dose: 2.0 mg/kg/injection, schedule: Q01DX009 (ip), vehicle: saline, evaluated on day 60) is 136 % of control; the T/C under setting [5] is 109, 137, 148 % of control; the T/C (T/C endpoint: mean survival time, dose: 2.0 mg/kg/injection, schedule: Q01DX009 (sc), vehicle: saline) is 126 % of control; the T/C under setting [6] is 132 % of control [9 of 10 alive]; the T/C (T/C endpoint: median survival time, dose: 2.0 mg/kg/injection, schedule: Q01DX009 (ip), vehicle: saline, evaluated on day 5) was 141 % of control; the T/C (T/C endpoint: median survival time, dose: 2.0 mg/kg/injection, schedule: Q01DX009 (ip), vehicle: saline, evaluated on day 30) is 140 % of control. For the same compound, the survivor count (T/C endpoint: mean survival time, dose: 1.0 mg/kg/injection, schedule: Q03HX016 (ip), vehicle: saline) is on record as 4 of 10; the survivor count (T/C endpoint: mean survival time, dose: 2.0 mg/kg/injection, schedule: Q01DX009 (ip), vehicle: saline) is given as 3 of 6; the survivor count under setting [5] is reported as 5 of 10; the survivor count (T/C endpoint: mean survival time, dose: 2.0 mg/kg/injection, schedule: Q03HX008 (ip), vehicle: saline) is listed as 0 of 10; the survivor count (T/C endpoint: mean survival time, dose: 2.0 mg/kg/injection, schedule: Q03HX016 (ip), vehicle: saline) was 0 of 10; the survivor count (T/C endpoint: mean survival time, dose: 2.0 mg/kg/injection, schedule: Q03HX024 (ip), vehicle: saline) is recorded as 0 of 10. Also, the survivor count reads like this: (T/C endpoint: mean survival time, dose: 2.5 mg/kg/injection, schedule: Q01DX009 (ip), vehicle: saline) 4 of 6; (T/C endpoint: mean survival time, dose: 4.0 mg/kg/injection, schedule: Q01DX009 (ip), vehicle: saline) 2 of 10; under setting [6], 0 of 10 and 1 of 6; (T/C endpoint: mean survival time, dose: 5.0 mg/kg/injection, schedule: Q01DX009 (ip), vehicle: saline) 0 of 6; (T/C endpoint: mean survival time, dose: 8.0 mg/kg/injection, schedule: Q01DX009 (ip), vehicle: water) 0 of 10; (T/C endpoint: mean survival time, dose: 8.0 mg/kg/injection, schedule: Q01DX009 (oral), vehicle: saline) 0 of 10. In addition, the survivor count by setting is: (T/C endpoint: mean survival time, dose: 8.0 mg/kg/injection, schedule: Q01DX009 (sc), vehicle: saline) 2 of 10; (T/C endpoint: mean survival time, dose: 10.0 mg/kg/injection, schedule: Q01DX009 (ip), vehicle: saline) 0 of 6; (T/C endpoint: mean survival time, dose: 16.0 mg/kg/injection, schedule: Q01DX001 (ip), vehicle: saline) 2 of 10; (T/C endpoint: mean survival time, dose: 16.0 mg/kg/injection, schedule: Q04DX003 (ip), vehicle: saline) 2 of 10; (T/C endpoint: mean survival time, dose: 20.0 mg/kg/injection, schedule: Q01DX009 (ip), vehicle: saline) 0 of 6.

Consider `C[n+]1ccc(/C=C/Nc2cccc(N)n2)cc1`, for which the survivor count under setting [7] is given as 1 of 6.

Regarding `CC(O)C[As](=O)(O)c1ccc(Cl)cc1` (centres undefined), the survivor count was 5 of 6 (T/C endpoint: mean survival time, dose: 50.0 mg/kg/injection, schedule: Q04DX003 (ip), vehicle: saline with Tween-80); 0 of 6 (2×) under setting [1]; 0 of 6 under setting [2]; 0 of 6 under setting [3].

On to `CCc1ccc(C(O)C(=O)O)cc1` (centres undefined), for which the survivor count (T/C endpoint: mean survival time, dose: 300.0 mg/kg/injection, schedule: Q01DX001 (ip), vehicle: acetone) was 2 of 6.

As for `NC(=O)C(Br)c1ccccc1` (centres undefined), the survivor count (T/C endpoint: mean survival time, dose: 400.0 mg/kg/injection, schedule: Q04DX003 (ip), vehicle: Klucel (hydroxypropylcellulose) (HPC)) is recorded as 0 of 6.

Turning to `O=C1C2CCCCC1C(N1CCCC1)CC2` (centres undefined), the survivor count (T/C endpoint: mean survival time, dose: 400.0 mg/kg/injection, schedule: Q01DX009 (sc), vehicle: olive oil, sesame oil, peanut oil) is listed as 4 of 6.

In the case of `COC(=O)C1=C(C)NC(=O)NC1c1ccc(N(CCCl)CCCl)c(OC)c1` (centres undefined), the T/C by setting is: (T/C endpoint: mean survival time, dose: 25.0 mg/kg/injection, schedule: Q01DX001 (ip), vehicle: Klucel (hydroxypropylcellulose) (HPC)) 129 % of control; (T/C endpoint: mean survival time, dose: 50.0 mg/kg/injection, schedule: Q01DX001 (ip), vehicle: Klucel (hydroxypropylcellulose) (HPC)) 140 % of control; (T/C endpoint: mean survival time, dose: 100.0 mg/kg/injection, schedule: Q01DX001 (ip), vehicle: Klucel (hydroxypropylcellulose) (HPC)) 129 % of control [4 of 6 alive]. Besides, the survivor count by setting is: (T/C endpoint: mean survival time, dose: 25.0 mg/kg/injection, schedule: Q01DX009 (ip), vehicle: Klucel (hydroxypropylcellulose) (HPC)) 1 of 6; (T/C endpoint: mean survival time, dose: 50.0 mg/kg/injection, schedule: Q01DX009 (ip), vehicle: Klucel (hydroxypropylcellulose) (HPC)) 1 of 6; (T/C endpoint: mean survival time, dose: 100.0 mg/kg/injection, schedule: Q01DX009 (ip), vehicle: Klucel (hydroxypropylcellulose) (HPC)) 1 of 6; (T/C endpoint: mean survival time, dose: 200.0 mg/kg/injection, schedule: Q01DX001 (ip), vehicle: Klucel (hydroxypropylcellulose) (HPC)) 2 of 6; (T/C endpoint: mean survival time, dose: 400.0 mg/kg/injection, schedule: Q01DX001 (ip), vehicle: Klucel (hydroxypropylcellulose) (HPC)) 0 of 6.

Regarding `CC=C=[CH][Sn]([CH2]CC)([CH2]CC)[CH2]CC`, the survivor count is reported as 2 of 6 (T/C endpoint: mean survival time, dose: 150.0 mg/kg/injection, schedule: Q01DX001 (ip), vehicle: saline) and 0 of 6 under setting [7].

Regarding `Cc1ccc(S(=O)(=O)OCCN(CCOS(=O)(=O)c2ccc(C)cc2)c2cccc(F)c2)cc1`, under setting [8], the T/C is 110 (2×) and 136 % of control; the survivor count was 2 of 4.

In the case of `CC(=O)Nc1nc(SCc2ccccc2)c2c(no[n+]2[O-])n1`, the survivor count (T/C endpoint: mean survival time, dose: 400.0 mg/kg/injection, schedule: Q04DX002 (ip), vehicle: saline with Tween-80) was 0 of 3.

For `O=C(NCCO)Nc1ccc(Cl)c(Cl)c1`, the survivor count (T/C endpoint: mean survival time, dose: 100.0 mg/kg/injection, schedule: Q04DX003 (ip), vehicle: Klucel (hydroxypropylcellulose) (HPC)) was 6 of 6.
